Source: PubChem BioAssay AID651640 (Broad Institute, 2012)
The whole screen tested about 350,000 compounds, of which about 6,000 (1.7%) were called active. This list was built around the results that the source calls inconclusive (neither active nor inactive); the mix of calls is not that of the screen. Rule as the data show it: active = CPE inhibition above about 20% (passing the limit was not always enough); inconclusive = no clear call, values can overlap the other calls; tested in BHK-21 cells.

Experiment: protection of cells from dengue 2 killing – plate reader, single concentration, primary screen (AID 651640);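 also: 0% = median of neutral control wells and 100% = median of positive control wells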
Conditions: DENV2-infected cells, cytopathic effect rescue, at 9.99 µM, hits give high values

SMILES	CPE inhibition
COc1ccc(C#Cc2ccc([C@H]3[C@H](CO)N4C(=O)CN(C(=O)c5ccncc5)C[C@@H]34)cc2)cc1	inconclusive: 24.4%
COC(=O)[C@@H]1C[C@H]2CC[C@H](O)C[C@H]2N1Cc1ccccc1OS(=O)(=O)c1ccc(C)cc1	inconclusive: 59.9%
Cc1ccc(S(=O)(=O)NCc2ccccc2)cc1C(=O)NC1CCC(C)CC1 (configuration not stated)	inconclusive: 23.7%
COc1ccc(OC)c(/C=N/NC(=O)c2cc[n+](Cc3ccccc3)cc2)c1	inconclusive: 115%
Cc1cc(C)c2sc(NC(=O)c3ccc(N4C(=O)CCC4=O)cc3)nc2c1	inconclusive: 29.8%
CCCC(=O)Nc1ccc2c(c1)OC[C@H](C)N(Cc1ccccc1)C[C@H](C)[C@@H](OC)CN(C)C2=O	active: 31.6%
COc1c(OC(C)=O)ccc(/C=N\NC(=O)c2ccc(Br)cc2)c1[N+](=O)[O-]	inconclusive: 20.4%
CC(C)NC(=O)N(C)C[C@H]1Oc2c(NS(=O)(=O)c3ccccc3)cccc2C(=O)N([C@@H](C)CO)C[C@@H]1C	inconclusive: 22.5%
C[C@@H]1CN([C@H](C)CO)C(=O)c2cc(NS(=O)(=O)c3ccc(Cl)cc3)ccc2O[C@@H](C)CCCCO[C@H]1CN(C)S(=O)(=O)c1ccc(Cl)cc1	active: 54%
COc1ccc2c(c1)c(=O)oc1cc(OCC(=O)NCC3CCC(C(=O)O)CC3)ccc12 (configuration not stated)	inconclusive: 35.2%
COc1ccc(-c2ccc([C@H]3[C@@H](CO)N4CCCCN(S(=O)(=O)c5cccs5)C[C@H]34)cc2)cc1	active: 26.5%
Cc1ccc(C(=O)NC(=S)NCc2cccnc2)cc1	inconclusive: 23.4%
O=C(NCc1ccc(F)c(F)c1)c1ccc(-c2ccc(F)c(F)c2)c2ccoc12	inconclusive: 22.9%
Cc1oc(C)c(C(=O)O)c1C(=O)O	inconclusive: 29.6%
CCCNC(=O)N1[C@H](C#N)[C@H](c2ccc(-c3cccc(OC)c3)cc2)[C@H]1CO	active: 58.4%
CN(C)c1ccc2c(c1)[C@H]1C[C@H](CC(=O)NCc3ccccn3)O[C@H](CO)[C@H]1O2	inconclusive: 20.8%
CCNC(=O)C[C@@H]1CC[C@H](NC(=O)C2CCC2)[C@H](CO)O1	inactive: 0.45%
CN1CCN(C(=O)C[C@@H]2CC[C@H]3[C@@H](COC[C@@H](O)CN3CC3CC3)O2)CC1	inactive: 16.3%
Cc1c(C(=O)Nc2nccs2)oc2ccc(Br)cc12	inconclusive: 26.9%
COc1ccc2c3c(n(C)c2c1)[C@@H](CO)N(Cc1cc(F)ccc1F)CC31CN(C(=O)C2CC2)C1	active: 37.9%
CCN(C[C@H]1N[C@@](Cc2ccccc2)(C(=O)OC)[C@H]2C(=O)N(C)C(=O)[C@@H]12)S(=O)(=O)c1ccc(OC(F)(F)F)cc1	active: 83.5%
O=C(NCC1CCCN1S(=O)(=O)c1cccs1)C(=O)Nc1ccc(F)cc1 (configuration not stated)	inactive: 7.4%
Cc1ccc(NC(=O)CN2CCOCC2)cc1S(=O)(=O)N1CCCCC1	inconclusive: 33.7%
CCCCn1c(N)c(N(C)C(=O)c2cn(-c3ccccc3)nc2-c2ccccc2)c(=O)[nH]c1=O	inconclusive: 23.4%

Some of these compounds in order of length of the SMILES, falling.
SMILES	CPE inhibition
CCN(C[C@H]1N[C@@](Cc2ccccc2)(C(=O)OC)[C@H]2C(=O)N(C)C(=O)[C@@H]12)S(=O)(=O)c1ccc(OC(F)(F)F)cc1	active: 83.5%
Cc1ccc(NC(=O)CN2CCOCC2)cc1S(=O)(=O)N1CCCCC1	inconclusive: 33.7%
Cc1c(C(=O)Nc2nccs2)oc2ccc(Br)cc12	inconclusive: 26.9%

The results go on.

SMILES	CPE inhibition
CS(=O)(=O)N1CC2(C1)[C@@H](c1ccccc1)[C@@H](CO)N2Cc1ccccn1	inactive: -11%
O=C(NCc1ccccc1CN1CCOCC1)c1ccc(-n2cccn2)cc1	inconclusive: 23.3%
COc1cccc(CNC(=O)Cn2ccc3cc(S(=O)(=O)N4CCCC4)ccc32)c1	inconclusive: 26.2%
O=C(OCC(=O)N1CCOCC1)c1cccc(F)c1	inconclusive: 26.1%
O=C(NCCN1CCCC1)[C@H]1[C@H](CO)[C@H]2Cn3c(cccc3=O)[C@@H]1N2C(=O)NC1CCCC1	active: 23.4%
CCCN1CCC(NC(=O)CC2C(=O)NCCN2Cc2cccc(OC)c2)CC1 (configuration not stated)	active: 85.3%
C[C@H](CO)N1C[C@H](C)[C@H](CN(C)C(=O)Nc2ccc3c(c2)OCO3)Oc2cc(C#Cc3ccncc3)ccc2S1(=O)=O	inconclusive: 38.5%
Brc1cccc(-c2nnc3sc(CNC4CCCC4)cn23)c1	inconclusive: 43.5%
CC(=O)N(C)C[C@H]1[C@H](c2ccc(-c3ccccc3)cc2)[C@@H](CO)N1C(=O)C1CC1	inactive: -11.1%
C[C@@H]1CN([C@H](C)CO)S(=O)(=O)c2ccc(C#CC3CC3)cc2O[C@@H]1CN(C)C(=O)c1cccc(F)c1	inactive: -3.05%
CCc1ccc(CNC(=O)c2nn(C)c3c2CS(=O)(=O)c2ccccc2-3)cc1	inactive: -6.63%
COc1ccc(OC)c(S(=O)(=O)Oc2ccc(N)c3ccccc23)c1	inactive: -4.14%
Cc1ccc(S(=O)(=O)c2nc(-c3ccccc3)oc2N2CCC(C(N)=O)CC2)cc1	inactive: 5.76%
Cc1ccc(S(=O)(=O)N2CC[C@@H]3[C@H](CO)Nc4ccc(C#Cc5cccc(F)c5)cc4[C@@H]32)cc1	inconclusive: 20.6%
N#C[C@@H]1[C@H](c2ccc(C#Cc3ccccc3F)cc2)[C@@H](CO)N1C(=O)C1CCC1	inactive: -7.88%
Cn1cnc(S(=O)(=O)N2CC[C@@H]3[C@H](CO)Nc4ccc(-c5cccc(F)c5)cc4[C@@H]32)c1	inconclusive: 48.7%
O=C(COC(=O)c1n[nH]c2ccccc12)NC1CCCCC1	inconclusive: 47.5%
COc1ccc(-c2[nH]ncc2CN2CCSCC2)c(OC)c1	inactive: -1.51%
C[C@H]1CN([C@@H](C)CO)C(=O)Cc2cc(NS(C)(=O)=O)ccc2O[C@H]1CN(C)C(=O)Nc1ccc(F)cc1	inconclusive: 27.4%
COc1ccccc1-c1cn(CC[C@H]2CC[C@H](NC(=O)NC(C)C)[C@@H](CO)O2)nn1	inactive: 9.68%
CCCCOCCCNC(=O)C[C@@H]1C[C@@]2(C(=O)OCC)CCCC=C2N(CCc2ccc(OC)c(OC)c2)C1=O	active: 27.6%
O=C(NCc1nc2ccccc2[nH]1)C1=C[C@H](c2ccc(C(F)(F)F)cc2)C[C@H](OCCCCO)O1	active: 21.3%
Cc1nnc(SCCC(=O)Nc2ccccc2Cl)o1	inconclusive: 22.6%

Structural class, those above containing a COOH group
SMILES	CPE inhibition
COc1ccc2c(c1)c(=O)oc1cc(OCC(=O)NCC3CCC(C(=O)O)CC3)ccc12 (configuration not stated)	inconclusive: 35.2%
Cc1oc(C)c(C(=O)O)c1C(=O)O	inconclusive: 29.6%
